Experimental data as given in patent publication US20070259402A1.
These are yes or no findings as the source states them, for the method shown. Some results given as binding are weak or reduced against the parent protein; the word gives no strength.

How the values were obtained:
[1] = target: proFIX-Fc homodimer (FIX-Fc dimer retaining the propeptide) (human); test: protein A purification followed by SDS-PAGE, CHO line with PC7-SOL, FIG. 5
[2] = target: FIX-Fc homodimer, propeptide removed (human); test: protein A purification followed by SDS-PAGE, CHO line with PACE-SOL, FIG. 5

binding [1]: binds
binding [2]: binds
Substance: protein A (protein A-Sepharose / MabSelect) (from UniProt P38507 37-327)
